PubChem BioAssay AID602196 – INSERM – 2012
Shown is a random part of about 23,000 reagents tested. 455 of all reagents (2%) count as active. 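Active includes both protection and sensitisation; some change values fall well beyond the stated -50 to +50 range.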 Not all columns of the deposit are shown. No sequences are given here. Not given: the amount of reagent.

Assay: 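Genes whose knock-down alters cisplatin killing of lung cancer cells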
System: human A549 lung cancer cells
Reagent: siRNA pair against human genes
Duration: 48 h transfection before cisplatin; time from cisplatin to read-out not stated
Challenge: cisplatin at a dose killing half of control-siRNA cells; exact dose and duration not given
Read-out: 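Cisplatin cell death as a shift from the 50% death seen with control siRNA; siRNAs toxic or growth-blocking alone scored 0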
Scale: two-siRNA summed score (-2 to +2): higher = both siRNAs protect from cisplatin killing; -2 means both sensitise
Rule for the call: 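siRNAs harmful alone (LDH or WST-1) get 0; others get +1 for less and -1 for more cisplatin killing; genes are active when the two siRNAs give the same sign, summing to ±2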
Meaning of the calls: active = both siRNAs shift cisplatin killing the same way; inactive = no consistent shift, or siRNA harmful alone

{"target": "LTF", "two-siRNA summed score (-2 to +2)": 0, "outcome": "inactive"}
{"target": "ZNF239", "two-siRNA summed score (-2 to +2)": 0, "outcome": "inactive"}
{"target": "DGKZ", "two-siRNA summed score (-2 to +2)": 1, "outcome": "inactive"}
{"target": "SOX11", "two-siRNA summed score (-2 to +2)": -1, "outcome": "inactive"}
{"target": "ACAD9", "two-siRNA summed score (-2 to +2)": 0, "outcome": "inactive"}
{"target": "SELP", "two-siRNA summed score (-2 to +2)": 0, "outcome": "inactive"}
{"target": "NPC1", "two-siRNA summed score (-2 to +2)": 0, "outcome": "inactive"}
{"target": "TGFBRAP1", "two-siRNA summed score (-2 to +2)": 0, "outcome": "inactive"}
{"target": "NR1D1", "two-siRNA summed score (-2 to +2)": 0, "outcome": "inactive"}
{"target": "KRTAP4-4", "two-siRNA summed score (-2 to +2)": 0, "outcome": "inactive"}
{"target": "MTX2", "two-siRNA summed score (-2 to +2)": 1, "outcome": "inactive"}
{"target": "MICA", "two-siRNA summed score (-2 to +2)": -1, "outcome": "inactive"}
{"target": "LOC402643", "two-siRNA summed score (-2 to +2)": 0, "outcome": "inactive"}
{"target": "CD79A", "two-siRNA summed score (-2 to +2)": -1, "outcome": "inactive"}
{"target": "HYAL1", "two-siRNA summed score (-2 to +2)": 0, "outcome": "inactive"}
{"target": "SH3BP4", "two-siRNA summed score (-2 to +2)": 0, "outcome": "inactive"}
{"target": "RNF180", "two-siRNA summed score (-2 to +2)": 1, "outcome": "inactive"}
{"target": "SLA2", "two-siRNA summed score (-2 to +2)": 0, "outcome": "inactive"}
{"target": "FAAP100", "two-siRNA summed score (-2 to +2)": 0, "outcome": "inactive"}
{"target": "OMP", "two-siRNA summed score (-2 to +2)": 0, "outcome": "inactive"}
{"target": "TMEM8B", "two-siRNA summed score (-2 to +2)": 0, "outcome": "inactive"}
{"target": "LOC256223", "two-siRNA summed score (-2 to +2)": 0, "outcome": "inactive"}
{"target": "TBX21", "two-siRNA summed score (-2 to +2)": 0, "outcome": "inactive"}
{"target": "CCR5", "two-siRNA summed score (-2 to +2)": 0, "outcome": "inactive"}
{"target": "GGNBP2", "two-siRNA summed score (-2 to +2)": 0, "outcome": "inactive"}
{"target": "BST2", "two-siRNA summed score (-2 to +2)": 0, "outcome": "inactive"}
{"target": "LSR", "two-siRNA summed score (-2 to +2)": -1, "outcome": "inactive"}
{"target": "ECM1", "two-siRNA summed score (-2 to +2)": 1, "outcome": "inactive"}
{"target": "NPM1P39", "two-siRNA summed score (-2 to +2)": 0, "outcome": "inactive"}
{"target": "TSKU", "two-siRNA summed score (-2 to +2)": 0, "outcome": "inactive"}
{"target": "LRRC43", "two-siRNA summed score (-2 to +2)": 0, "outcome": "inactive"}

Laid out differently: results already given
| target | two-siRNA summed score (-2 to +2) | outcome |
| --- | --- | --- |
| BST2 | 0 | inactive |
| LSR | -1 | inactive |
| ECM1 | 1 | inactive |
| NPM1P39 | 0 | inactive |
| TSKU | 0 | inactive |
